Measurements: article doi:10.1101/2025.11.17.688879
Like-named read-outs stand apart in the source and are kept apart here. No constants are given. Whether binding was seen depends on the method and setting. Binding seen in cells or lysates may run through a third protein. Some results given as binding are weak or reduced against the parent protein; the word gives no strength. Tags and fused reporters may be left off the sequences shown.

Experiments:
Test in all cases: co-IP
[1] = biological target: T1, DmSTING (STING homolog of Drosophila melanogaster) (Drosophila melanogaster)
T1 sequence: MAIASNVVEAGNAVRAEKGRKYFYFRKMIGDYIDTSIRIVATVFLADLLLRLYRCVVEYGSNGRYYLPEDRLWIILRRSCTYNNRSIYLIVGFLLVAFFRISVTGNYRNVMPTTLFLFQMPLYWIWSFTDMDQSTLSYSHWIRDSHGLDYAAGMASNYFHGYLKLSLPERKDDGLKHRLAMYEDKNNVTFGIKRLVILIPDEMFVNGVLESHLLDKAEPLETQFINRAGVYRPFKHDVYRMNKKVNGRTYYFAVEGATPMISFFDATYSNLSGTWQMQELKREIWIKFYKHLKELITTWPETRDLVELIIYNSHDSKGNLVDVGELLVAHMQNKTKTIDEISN

[2] = biological target: T2, HA-DrSTING (STING of Danio rerio), expressed in HEK 293T (Danio rerio)
T2 sequence: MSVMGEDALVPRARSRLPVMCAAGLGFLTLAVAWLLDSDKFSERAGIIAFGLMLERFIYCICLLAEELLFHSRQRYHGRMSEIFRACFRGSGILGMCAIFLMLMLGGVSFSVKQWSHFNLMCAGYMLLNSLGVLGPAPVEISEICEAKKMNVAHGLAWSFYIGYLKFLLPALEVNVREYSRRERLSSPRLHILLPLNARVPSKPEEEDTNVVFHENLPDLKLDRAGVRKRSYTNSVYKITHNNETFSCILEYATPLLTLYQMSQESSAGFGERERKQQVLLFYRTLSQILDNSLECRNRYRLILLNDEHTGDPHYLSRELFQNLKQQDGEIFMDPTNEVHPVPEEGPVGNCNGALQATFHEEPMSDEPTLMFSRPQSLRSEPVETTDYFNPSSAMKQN

[3] = biological target: T3, HA-MmSTING (STING of Mus musculus), expressed in HEK 293T (Mus musculus)
T3 sequence: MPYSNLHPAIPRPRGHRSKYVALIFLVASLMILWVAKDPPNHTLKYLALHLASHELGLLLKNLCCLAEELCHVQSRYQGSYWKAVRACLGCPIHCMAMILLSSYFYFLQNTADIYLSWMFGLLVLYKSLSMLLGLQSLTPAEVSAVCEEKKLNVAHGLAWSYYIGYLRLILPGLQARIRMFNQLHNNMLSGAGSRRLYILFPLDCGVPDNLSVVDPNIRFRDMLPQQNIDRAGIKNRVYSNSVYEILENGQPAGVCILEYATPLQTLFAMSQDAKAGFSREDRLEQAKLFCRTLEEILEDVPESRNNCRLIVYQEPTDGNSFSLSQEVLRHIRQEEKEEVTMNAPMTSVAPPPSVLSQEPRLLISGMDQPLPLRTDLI

[4] = biological target: T4, HA-tagged CgSTING (STING homolog of the mollusk Crassostrea gigas) (Crassostrea gigas)
T4 sequence: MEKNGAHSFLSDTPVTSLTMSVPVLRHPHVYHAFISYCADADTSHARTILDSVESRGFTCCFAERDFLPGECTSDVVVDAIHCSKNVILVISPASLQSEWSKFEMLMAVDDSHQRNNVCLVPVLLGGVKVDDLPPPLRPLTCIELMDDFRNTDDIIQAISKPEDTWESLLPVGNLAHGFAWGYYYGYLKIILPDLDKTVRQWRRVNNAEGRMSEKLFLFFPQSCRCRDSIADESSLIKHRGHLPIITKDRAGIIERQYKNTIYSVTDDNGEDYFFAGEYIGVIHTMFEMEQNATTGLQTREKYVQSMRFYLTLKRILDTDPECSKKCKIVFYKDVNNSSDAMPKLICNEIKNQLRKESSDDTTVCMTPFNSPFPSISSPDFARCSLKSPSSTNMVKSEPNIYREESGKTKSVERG

[5] = biological target: HA-tagged FsSTING (STING homolog of the bacterium Flavobacteriaceae sp.) (Flavobacteriaceae sp.)
[6] = biological target: T2, HA-DrSTING (STING of Danio rerio), expressed in HEK 293T (Danio rerio); remark: listed apart in the source
[7] = biological target: T5, HA-MbSTING (STING of Monosiga brevicollis), expressed in HEK 293T (Monosiga brevicollis)
T5 sequence: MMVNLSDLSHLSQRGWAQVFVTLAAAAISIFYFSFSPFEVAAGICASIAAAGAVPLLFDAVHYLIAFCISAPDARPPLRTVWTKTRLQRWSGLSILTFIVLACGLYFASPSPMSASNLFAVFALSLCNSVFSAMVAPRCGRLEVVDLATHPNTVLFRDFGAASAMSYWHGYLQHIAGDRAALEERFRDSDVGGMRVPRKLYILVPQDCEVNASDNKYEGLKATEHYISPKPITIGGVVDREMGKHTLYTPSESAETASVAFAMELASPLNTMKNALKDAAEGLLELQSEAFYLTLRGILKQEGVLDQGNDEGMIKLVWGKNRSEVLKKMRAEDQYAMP

[8] = biological target: T3, HA-MmSTING (STING of Mus musculus), expressed in HEK 293T (Mus musculus); remark: listed apart in the source
[9] = biological target: HA-NvSTING (STING of Nematostella vectensis), expressed in HEK 293T (Nematostella vectensis)
[10] = biological target: T6, HA-XtSTING (STING of Xenopus tropicalis), expressed in HEK 293T (Xenopus tropicalis)
T6 sequence: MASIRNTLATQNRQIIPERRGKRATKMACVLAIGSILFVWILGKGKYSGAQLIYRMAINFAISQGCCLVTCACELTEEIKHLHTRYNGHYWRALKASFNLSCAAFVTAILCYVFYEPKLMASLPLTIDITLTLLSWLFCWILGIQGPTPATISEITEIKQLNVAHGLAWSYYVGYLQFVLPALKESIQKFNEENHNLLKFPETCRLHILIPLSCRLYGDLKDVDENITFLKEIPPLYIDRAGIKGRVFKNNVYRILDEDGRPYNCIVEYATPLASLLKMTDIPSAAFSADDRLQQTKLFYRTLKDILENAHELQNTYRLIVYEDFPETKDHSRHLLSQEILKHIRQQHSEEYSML

B1: MmFADS2-FLAG (fatty acid desaturase 2 of Mus musculus) (protein)
chain: MGKGGNQGEGSTERQAPMPTFRWEEIQKHNLRTDRWLVIDRKVYNVTKWSQRHPGGHRVIGHYSGEDATDAFRAFHLDLDFVGKFLKPLLIGELAPEEPSLDRGKSSQITEDFRALKKTAEDMNLFKTNHLFFFLLLSHIIVMESLAWFILSYFGTGWIPTLVTAFVLATSQAQAGWLQHDYGHLSVYKKSIWNHVVHKFVIGHLKGASANWWNHRHFQHHAKPNIFHKDPDIKSLHVFVLGEWQPLEYGKKKLKYLPYNHQHEYFFLIGPPLLIPMYFQYQIIMTMISRRDWVDLAWAISYYMRFFYTYIPFYGILGALVFLNFIRFLESHWFVWVTQMNHLVMEIDLDHYRDWFSSQLAATCNVEQSFFNDWFSGHLNFQIEHHLFPTMPRHNLHKIAPLVKSLCAKHGIEYQEKPLLRALIDIVSSLKKSGELWLDAYLHK
[1]
  binding: binds
[2]
  binding: binds
[3]
  binding: binds
[4]
  binding: no binding
[5]
  binding: no binding
[6]
  binding: binds
[7]
  binding: binds
[8]
  binding: binds
[9]
  binding: binds
[10]
  binding: binds
